{
  "source": "patent US20220296690A1",
  "about": "(Pieris, published 2022)",
  "binders": {"B1": {"name": "Anticalin-based CTLA-4 antagonist with Strep-tag II, mature processed secreted form (SEQ ID NO: 28) (designed binder)", "chain": "QDSTSDLIPAPPLSKVPLQQNFQDNQFQGKWYVVGLAGNRILRQDQHPMLMYATIYELKEDKSYQVTSVISSHKKCLYPIATFVPGSQPGEFTLGNIKSYGDKVSYLVRVVSTNYNQHAMVFFKHADTNYESFSITLYGRTKELTSELKENFIRFSKSLGLPENHIVFPVPIDQCIDGSAWSHPQFEK", "notes": "also called anti-CTLA-4 Anticalin; αCTLA-4"}},
  "target": "CTLA-4 stably expressed on the surface of Chinese Hamster Ovary cells (CHO::CTLA-4)",
  "test": "Flow cytometry on CHO::CTLA-4 cells; Jurkat culture supernatant, detected with rabbit anti-NGAL polyclonal antibody and Dylight594-labeled anti-rabbit antibody",
  "note": "No constants are given. Whether binding was seen depends on the method and setting. A result given as binding can be weak or reduced; the word gives no strength. Where a sequence is shown, tags or fusion partners need not be part of it.",
  "data": [
    {"binder": "B1", "values": [
      {"measurement": "binding", "result": "binds"}
    ]}
  ]
}
